Source: patent US11933794B2, “Method for determining factor Xa inhibitor dosage” (Good Biomarker Sciences B.V., priority 2017, dated 2024)
At least one structure is not confirmed: it was looked up by name or label, or the drawing left a doubt.

What was measured:
[1] = tested on: clot growth in hemophilia plasma (deficient in Factor IX and Factor VIII); experiment: Clot growth experiments comparing normal and hemophilia plasma; format: biochemical, human; details: hemophilia plasmas; in contrast to what was found in normal plasma
Excerpt: For clot growth, this now appears the key mechanism. In contrast, in text books, activation of Factor VIII is indicated to be a thrombin action.
(§1) The clot growth rate assay monitors over time fibrin clot development in a nonstirred thin layer of platelet-free plasma activated by immobilized tissue factor. For this, the Thrombodynamics Basic Kit can be used as an in vitro diagnostic kit used to perform measurements of spatiotemporal dynamics of fibrin clot formation in blood plasma samples. The kit consists of measurement cuvettes, activating inserts and reagents for samples treatment. The kit is obtainable from HemaCore intended for professional use in the laboratory on the Thrombodynamics Analyzer T-2. See, for further details, Soshitova et al. (Blood Coagul. Fibrinolysis, 2012 September; 23(6):498-507).

[2] = tested on: fibrin clot formation in blood plasma; experiment: Clot growth rate assay (Thrombodynamics) in plasma samples with defined Factor VIII levels; format: biochemical, human; details: FIG. 2
Excerpt: as §1
Five plasma samples were prepared containing 50%, 75%, 100%, 150%, or 200% Factor VIII, respectively. The samples were prepared using FVIII-deficient plasma, normal plasma from healthy subjects, and FVIII concentrate and Factor VIII levels were measured and confirmed by the one-stage clotting assay. Each of these five plasma samples was subdivided into five subsamples to which apixaban was added to a total concentration of 0 μM, 0.1 μM, 0.2 μM, 0.35 μM, or 0.5 μM in plasma, respectively. The 25 subsamples were subjected to a clot growth assay as described above, and the clot growth rate was measured at 2500 seconds after start of growth. […]

coagulation status = experiment: Coagulation status of patients by routine coagulation test (activated partial thromboplastin time, APTT); format: in vivo, human; details: Patient 3 (thrombosis), Factor VIII 220% of standard plasma, 20 mg per day
Method: Four subjects in need of […] are selected, including three patients with thrombosis, and one patient with coronary artery disease.
Coagulation status of patients 1-4 is determined by a routine coagulation test (activated partial thromboplastin time, APTT).

CN1CCc2nc(C(=O)N[C@@H]3C[C@@H](C(=O)N(C)C)CC[C@@H]3NC(=O)C(=O)Nc3ccc(Cl)cn3)sc2C1 [edoxaban]
inhibition of clot growth [1]: did not inhibit clot growth | effects in the clot growth rate assay compared with apixaban [2]: closely mimic the effects of apixaban | coagulation status (APTT): risk of blood clotting or bleeding events (coagulation status): no increased risk of blood clotting or bleeding events
